Results are given in words; binding and its absence hold for the method and conditions named. In cells and extracts the contact can be indirect. These calls come from enrichment with a bait or labelling near it, and not all partners need be listed.
The substances below were run against Recombinant human cerebral dopamine neurotrophic factor (CDNF) (human) (UniProt Q49AH0) (assay: affinity purification with mass spectrometry; extracellularly applied CDNF immunoprecipitated with 4.8 μg rabbit monoclonal anti-human CDNF antibody from extracts of AA- and CDNF-treated human washed platelets; LC-MS of the precipitate).

Chains of the proteins cited; added tags and fusions are not shown. Lines headed by an entry give the natural chain unless they say otherwise; changes in a name come on top. Residues count along the entry.
UniProt Q49AH0, residues 25-187: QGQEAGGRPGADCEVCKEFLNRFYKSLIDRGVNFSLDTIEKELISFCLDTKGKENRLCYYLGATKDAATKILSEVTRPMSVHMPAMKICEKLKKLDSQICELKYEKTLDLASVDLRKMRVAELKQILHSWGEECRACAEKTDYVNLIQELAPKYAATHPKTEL
UniProt P50552: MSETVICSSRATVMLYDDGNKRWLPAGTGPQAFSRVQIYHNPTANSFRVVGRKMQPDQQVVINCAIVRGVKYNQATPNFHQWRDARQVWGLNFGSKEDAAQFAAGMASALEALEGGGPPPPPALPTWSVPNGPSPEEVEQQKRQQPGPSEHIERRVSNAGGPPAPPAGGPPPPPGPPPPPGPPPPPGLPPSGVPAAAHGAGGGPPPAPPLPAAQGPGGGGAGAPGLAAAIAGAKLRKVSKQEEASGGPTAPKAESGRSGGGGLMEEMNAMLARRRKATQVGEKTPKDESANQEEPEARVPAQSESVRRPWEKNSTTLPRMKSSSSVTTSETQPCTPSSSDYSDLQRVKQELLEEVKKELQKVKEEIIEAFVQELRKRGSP
UniProt P06396, residues 28-782: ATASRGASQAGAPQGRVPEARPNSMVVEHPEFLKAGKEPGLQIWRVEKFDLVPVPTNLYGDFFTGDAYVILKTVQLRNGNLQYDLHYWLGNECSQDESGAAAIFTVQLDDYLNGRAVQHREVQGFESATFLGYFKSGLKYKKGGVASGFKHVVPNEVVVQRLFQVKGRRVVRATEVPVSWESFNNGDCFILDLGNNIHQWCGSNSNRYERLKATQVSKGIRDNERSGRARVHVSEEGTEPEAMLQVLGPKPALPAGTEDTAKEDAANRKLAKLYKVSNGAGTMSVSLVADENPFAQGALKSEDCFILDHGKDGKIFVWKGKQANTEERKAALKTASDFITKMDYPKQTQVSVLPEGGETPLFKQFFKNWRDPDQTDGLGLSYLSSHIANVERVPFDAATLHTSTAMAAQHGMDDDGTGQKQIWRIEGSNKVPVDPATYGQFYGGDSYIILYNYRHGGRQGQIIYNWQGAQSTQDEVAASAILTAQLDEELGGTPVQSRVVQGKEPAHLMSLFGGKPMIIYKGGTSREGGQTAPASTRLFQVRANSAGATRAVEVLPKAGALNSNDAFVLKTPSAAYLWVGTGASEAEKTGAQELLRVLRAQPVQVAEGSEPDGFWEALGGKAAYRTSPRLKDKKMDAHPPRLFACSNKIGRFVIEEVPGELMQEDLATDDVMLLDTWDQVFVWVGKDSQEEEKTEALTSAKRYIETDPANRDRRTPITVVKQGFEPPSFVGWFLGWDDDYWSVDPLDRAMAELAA
UniProt O14950: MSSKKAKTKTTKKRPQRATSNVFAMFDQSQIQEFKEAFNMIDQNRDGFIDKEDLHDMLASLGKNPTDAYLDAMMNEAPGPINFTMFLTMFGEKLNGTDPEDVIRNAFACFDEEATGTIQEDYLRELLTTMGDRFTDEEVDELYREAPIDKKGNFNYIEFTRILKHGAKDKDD
UniProt P61224: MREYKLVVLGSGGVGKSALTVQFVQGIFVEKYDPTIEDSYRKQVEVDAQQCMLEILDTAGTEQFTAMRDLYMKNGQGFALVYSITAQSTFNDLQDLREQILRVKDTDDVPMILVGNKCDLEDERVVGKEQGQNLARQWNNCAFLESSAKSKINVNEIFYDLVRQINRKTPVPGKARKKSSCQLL
UniProt P01127: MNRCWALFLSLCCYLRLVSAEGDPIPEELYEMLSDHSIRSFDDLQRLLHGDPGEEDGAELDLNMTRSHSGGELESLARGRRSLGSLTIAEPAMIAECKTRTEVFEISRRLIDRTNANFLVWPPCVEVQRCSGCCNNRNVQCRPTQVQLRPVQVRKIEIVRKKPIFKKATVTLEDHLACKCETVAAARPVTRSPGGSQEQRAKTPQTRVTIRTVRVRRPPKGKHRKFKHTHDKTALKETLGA
UniProt Q9Y490: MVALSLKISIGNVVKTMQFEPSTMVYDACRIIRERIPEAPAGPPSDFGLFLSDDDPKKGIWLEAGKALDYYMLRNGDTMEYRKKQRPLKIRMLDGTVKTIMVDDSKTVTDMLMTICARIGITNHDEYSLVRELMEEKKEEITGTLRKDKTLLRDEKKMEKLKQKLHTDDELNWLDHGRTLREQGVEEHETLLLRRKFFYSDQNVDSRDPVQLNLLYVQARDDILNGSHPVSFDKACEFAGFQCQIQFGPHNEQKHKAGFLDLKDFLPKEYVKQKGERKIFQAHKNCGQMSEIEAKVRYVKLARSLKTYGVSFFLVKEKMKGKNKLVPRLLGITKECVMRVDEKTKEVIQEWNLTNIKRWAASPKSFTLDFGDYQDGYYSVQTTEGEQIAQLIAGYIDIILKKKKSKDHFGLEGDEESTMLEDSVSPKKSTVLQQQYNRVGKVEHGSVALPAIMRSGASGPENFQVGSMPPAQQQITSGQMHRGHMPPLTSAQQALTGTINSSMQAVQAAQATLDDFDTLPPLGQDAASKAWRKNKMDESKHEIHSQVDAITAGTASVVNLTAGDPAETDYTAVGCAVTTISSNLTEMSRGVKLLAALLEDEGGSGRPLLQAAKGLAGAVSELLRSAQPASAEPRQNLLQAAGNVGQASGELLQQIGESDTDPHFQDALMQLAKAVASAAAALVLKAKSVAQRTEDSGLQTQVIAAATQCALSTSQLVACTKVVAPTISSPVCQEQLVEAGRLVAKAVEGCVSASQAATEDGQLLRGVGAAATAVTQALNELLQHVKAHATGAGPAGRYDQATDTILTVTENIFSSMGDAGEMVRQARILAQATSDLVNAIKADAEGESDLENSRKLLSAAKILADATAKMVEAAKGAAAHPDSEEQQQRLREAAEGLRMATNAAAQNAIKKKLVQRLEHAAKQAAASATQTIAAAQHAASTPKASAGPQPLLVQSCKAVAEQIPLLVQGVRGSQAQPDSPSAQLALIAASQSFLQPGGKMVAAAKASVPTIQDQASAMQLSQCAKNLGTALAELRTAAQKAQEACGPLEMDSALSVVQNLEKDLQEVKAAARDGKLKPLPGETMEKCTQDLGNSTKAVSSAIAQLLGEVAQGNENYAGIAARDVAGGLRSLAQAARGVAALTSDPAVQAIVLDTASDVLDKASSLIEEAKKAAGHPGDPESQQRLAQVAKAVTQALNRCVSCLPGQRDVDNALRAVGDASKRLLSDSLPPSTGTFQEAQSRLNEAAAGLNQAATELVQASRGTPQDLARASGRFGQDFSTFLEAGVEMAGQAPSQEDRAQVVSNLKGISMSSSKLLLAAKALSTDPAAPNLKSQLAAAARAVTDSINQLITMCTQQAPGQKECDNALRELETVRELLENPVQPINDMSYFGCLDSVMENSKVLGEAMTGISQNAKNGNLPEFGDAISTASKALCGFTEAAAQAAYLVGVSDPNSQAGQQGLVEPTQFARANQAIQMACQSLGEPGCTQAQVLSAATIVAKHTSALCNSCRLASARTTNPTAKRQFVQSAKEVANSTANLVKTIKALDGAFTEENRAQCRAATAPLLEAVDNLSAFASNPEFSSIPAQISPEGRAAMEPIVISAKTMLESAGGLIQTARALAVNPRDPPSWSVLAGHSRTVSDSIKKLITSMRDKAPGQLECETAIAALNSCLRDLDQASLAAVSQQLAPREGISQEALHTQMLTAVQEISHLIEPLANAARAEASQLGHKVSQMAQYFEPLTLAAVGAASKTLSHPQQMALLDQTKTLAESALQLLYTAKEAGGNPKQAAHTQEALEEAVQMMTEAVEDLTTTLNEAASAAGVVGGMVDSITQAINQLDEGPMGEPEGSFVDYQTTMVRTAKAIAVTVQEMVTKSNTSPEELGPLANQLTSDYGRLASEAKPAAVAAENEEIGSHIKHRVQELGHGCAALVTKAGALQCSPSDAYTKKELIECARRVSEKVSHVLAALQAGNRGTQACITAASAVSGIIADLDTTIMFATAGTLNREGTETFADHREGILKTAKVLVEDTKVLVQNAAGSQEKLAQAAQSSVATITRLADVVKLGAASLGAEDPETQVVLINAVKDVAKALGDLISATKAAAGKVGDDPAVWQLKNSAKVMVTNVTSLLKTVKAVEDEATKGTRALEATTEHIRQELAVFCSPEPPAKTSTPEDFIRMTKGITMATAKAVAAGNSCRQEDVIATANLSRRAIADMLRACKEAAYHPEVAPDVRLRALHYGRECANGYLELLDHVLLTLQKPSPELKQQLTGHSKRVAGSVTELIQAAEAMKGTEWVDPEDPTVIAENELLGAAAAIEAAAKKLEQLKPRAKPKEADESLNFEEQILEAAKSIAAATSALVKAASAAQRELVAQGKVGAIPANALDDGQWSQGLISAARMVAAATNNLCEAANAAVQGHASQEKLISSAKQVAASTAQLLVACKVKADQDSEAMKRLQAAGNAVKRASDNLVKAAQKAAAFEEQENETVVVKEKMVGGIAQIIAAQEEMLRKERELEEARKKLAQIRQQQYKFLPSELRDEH
UniProt Q13418: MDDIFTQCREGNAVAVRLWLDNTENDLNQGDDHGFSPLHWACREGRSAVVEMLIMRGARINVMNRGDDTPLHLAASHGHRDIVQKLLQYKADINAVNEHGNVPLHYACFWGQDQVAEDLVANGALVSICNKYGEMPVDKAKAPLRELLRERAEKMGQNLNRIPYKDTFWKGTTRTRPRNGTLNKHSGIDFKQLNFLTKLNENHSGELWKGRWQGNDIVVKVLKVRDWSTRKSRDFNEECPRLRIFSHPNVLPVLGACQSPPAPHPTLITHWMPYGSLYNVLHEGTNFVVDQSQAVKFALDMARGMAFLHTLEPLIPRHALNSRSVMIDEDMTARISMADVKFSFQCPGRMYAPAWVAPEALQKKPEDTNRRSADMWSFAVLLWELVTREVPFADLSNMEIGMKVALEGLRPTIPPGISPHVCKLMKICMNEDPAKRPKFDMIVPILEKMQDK

Row | Substance | binding
1 | vasodilator-stimulated phosphoprotein (VASP) (from UniProt P50552 1-380) | binds
2 | gelsolin (GSN) (from UniProt P06396 28-782) | binds
3 | myosin regulatory light chain 12B (MYL12B) (from UniProt O14950 1-172) | binds

The next lines start with the values.

Row | binding | Substance
4 | binds | Ras-related protein 1b (Rap1b) (from UniProt P61224 1-184)
5 | binds | platelet-derived growth factor subunit B (PDGF-B) (from UniProt P01127)
6 | binds | talin 1 (TLN1) (from UniProt Q9Y490 1-2541)
7 | binds | integrin-linked kinase (ILK) (from UniProt Q13418 1-452)

— publication PMC11573613
